Results from PubChem BioAssay AID2685 (National Center for Advancing Translational Sciences (NCATS), 2010).
This is one part of the list. The main result of the screen is listed elsewhere. These columns were measured beside it and carry no call. Most of these compounds were active or inconclusive in the main read-out, so they are no random draw. Words in brackets tell the shape of the fitted curve; partial curves, single points and poor fits give uncertain potencies.

Experiment: qHTS Assay for Lipid Storage Modulators in Drosophila S3 Cells;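 on cell number change: cells counted by Cell Tracker Red CMTPX staining in the red channel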
Details: BODIPY lipid droplet fluorescence, 18-24 h; for cell number change: measured here: cell count max response, cells fed with added oleic acid
Method in brief: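 Laser-scanning cytometry quantifies lipid droplet accumulation (500–530 nm total intensity; droplet/cell object ratio) in oleic acid-fed (400 uM added) Drosophila S3 cells treated with a concentration series. 20 uM Triacsin C defined 100% inhibition.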

[1] = measured here: cell number channel AC50, cells fed with added oleic acid
[2] = measured here: lipid fluorescence (Fed channel) AC50, cells fed with added oleic acid

| Compound | cell number change | AC50 [1] | AC50 [2] |
| --- | --- | --- | --- |
| COC(=O)c1ccc(C2C(Oc3ccc(OC)cc3)C(=O)N2CCc2ccc(F)cc2)cc1 (stereo unspecified) | 43.5% | 0.411 µM [rising, full curve, poor fit] | – |
| COc1ccc(/C=C(/NC(=O)c2ccco2)C(=O)N2CCCCC2)cc1 | -4.14% | – | – |
| Cc1nn(C)c(C(=O)N/N=C/c2cc3c(cc2Br)OCO3)c1Br | 22.3% | – | 3.26 µM [rising, partial curve] |
| O=[N+]([O-])c1cc([N+](=O)[O-])c2cccnc2c1O | -58% | 29.1 µM [falling, partial curve, poor fit] | 29.1 µM [falling, single point] |
| CN(C)CCCNC(=O)/C(=C\C=C\c1ccccc1)NC(=O)c1ccc([N+](=O)[O-])cc1 | 16.8% | – | 0.517 µM [rising, full curve, poor fit] |
| COc1cccc(CN(C)C(=O)C2CCN(S(=O)(=O)c3cccs3)CC2)c1OC | 45.1% | 7.31 µM [rising, partial curve, poor fit] | 29.1 µM [rising, single point] |
| Cc1ccc(S(=O)(=O)NCC2CCC(C(=O)NCc3ccco3)CC2)cc1 (stereo unspecified) | – | – | 0.58 µM [falling, single point] |
| COc1ccccc1NC(=O)CSc1nnc(C)n1CCc1ccccc1 | -40.6% | 29.1 µM [falling, single point] | – |
| CS(=O)(=O)N1CCC(C(=O)Nc2ccccc2Sc2ccccc2)CC1 | 69.5% | 11.6 µM [rising, partial curve] | – |
| Cc1cc(-c2n[nH]c(=S)n2/N=C/c2ccc(Br)s2)n[nH]1 | 1.07% | – | 0.517 µM [rising, partial curve, poor fit] |
| CC(C)C[C@H](NC(=O)c1[nH]cnc1C(=O)N[C@@H](Cc1ccccc1)C(=O)OCc1ccccc1)C(=O)OC(C)(C)C | 53.9% | 10.3 µM [rising, partial curve, poor fit] | 0.291 µM [falling, partial curve, poor fit] |
| Cc1ccc(NS(=O)(=O)c2sc3ccc(Cl)cc3c2C)cc1 | -67.9% | 11.6 µM [falling, partial curve] | 18.4 µM [falling, partial curve] |
| COc1ccc(CCNC(=O)C(=O)N2CCCC2)cc1OC | -38.2% | 5.8 µM [falling, full curve] | 5.8 µM [falling, full curve] |
| O=C(NCCCNCCCNC(=O)c1ccccn1)c1ccccn1 | -17.8% | – | 0.116 µM [falling, full curve, poor fit] |
| CCc1cc(=O)n2[nH]c(C)c(-c3ccc(OC)cc3)c2n1 | -18% | – | – |
| Cc1ccc(N(Cc2ccc([N+](=O)[O-])cc2)C(=O)c2ccco2)cc1 | -12.6% | – | 0.00517 µM [rising, full curve, poor fit] |
| Cc1ccc(C)c(NC(=O)C(OC(=O)c2ccc(CO)cc2)c2ccccc2)c1 (stereo unspecified) | 42.2% | 0.366 µM [rising, full curve] | – |
| COc1cccc(NC(=O)CN(C)C(=O)C(Sc2ccccc2)c2ccccc2)c1 (stereo unspecified) | -10.1% | – | 0.116 µM [falling, full curve, poor fit] |
| CCCSc1oc(-c2ccco2)nc1S(=O)(=O)c1ccc(C)cc1 | 19% | – | 0.116 µM [rising, full curve, poor fit] |
| CCOC(=O)N1CCN(C(=O)CSc2ccc3nnc(-c4ccccn4)n3n2)CC1 | 28.5% | – | – |

| Compound | cell number change | AC50 [1] | AC50 [2] |
| --- | --- | --- | --- |
| CCOC(=O)c1c(NC(=O)COC(=O)c2ccc([N+](=O)[O-])cc2)sc(C(=O)N(C)C)c1C | -25% | 2.06 µM [falling, full curve, poor fit] | 18.4 µM [rising, single point] |
| Cc1nn(CC(=O)N2CCc3ccccc3C2)c(C)c1Cl | -24.5% | – | – |
| CCOC(=O)C1=C(C)NC2=C(C(=O)CCC2)C1c1ccsc1 (stereo unspecified) | 2.75% | – | – |
| CCOc1ccc(NC(=O)C2CC(=O)N(CCc3ccccc3)C2)cc1OC (stereo unspecified) | -35.1% | 29.1 µM [falling, single point] | 20.6 µM [falling, partial curve, poor fit] |
| CCCC(=O)Nc1ccc(-c2csc(NNC(C)=O)n2)cc1 | 23.4% | – | – |
| O=S(=O)(NCCC1=CCCCC1)c1cccc(Br)c1 | 60.3% | 16.4 µM [rising, partial curve] | – |
| Cc1ccccc1NC(=O)Cn1nc(-c2ccc(Cl)s2)ccc1=O | -13.1% | – | 29.1 µM [falling, single point] |
| COc1ccc(-n2c(SCC(=O)Nc3ccc(Br)cc3)nc(O)cc2=O)cc1 | 17.3% | – | 29.1 µM [falling, single point] |
| O=C(COc1ccc2c(c1)CCC2)NCc1ccc(Cl)cc1 | -3.75% | 0.13 µM [falling, full curve, poor fit] | – |
| CCc1noc(C)c1C(=O)Nc1ccc(-c2nnc3n2CCCCC3)cc1 | – | 0.103 µM [falling, full curve, poor fit] | 0.651 µM [falling, single point] |
| O=[N+]([O-])c1cc([N+](=O)[O-])c2cc3ccccc3nc2c1 | – | – | 11.6 µM [falling, single point] |
| NS(=O)(=O)c1ccc(CCNC(=O)CCCNC(=O)c2ccc(Cl)cc2)cc1 | 30.6% | – | 29.1 µM [rising, partial curve] |
| COc1ccc(NS(=O)(=O)c2ccc(NS(=O)(=O)c3cccs3)cc2)cc1 | 15.2% | 2.91 µM [rising, partial curve] | 6.51 µM [falling, single point] |
| Cn1c(CC(=O)Nc2ccccc2Cl)nnc1SCC(=O)Nc1nncs1 | 6.35% | – | 29.1 µM [rising, single point] |
| COc1ccccc1Oc1coc2c(CN3CCOCC3)c(O)ccc2c1=O | -4.77% | 0.00461 µM [falling, full curve, poor fit] | 0.651 µM [falling, single point] |
| CC(=O)Nc1ccc(S(=O)(=O)N[C@@H](C)C(=O)Nc2ccc(N3CCOCC3)cc2)cc1 | 23.2% | – | – |
| O=C(Nc1cccc([N+](=O)[O-])c1)c1cc(S(=O)(=O)N2CCOCC2)cs1 | -26.1% | – | – |
| Cc1nc2c(cnn2-c2ccccc2Cl)c(=O)n1-c1ccc(N2CCC(C)CC2)cc1 | -41.1% | 1.84 µM [rising, partial curve] | 2.91 µM [rising, partial curve] |
| O=C(NCc1ccccc1Cl)C1CCN(C(=O)c2ccco2)CC1 | 4.5% | – | 0.58 µM [rising, single point] |
| CCCn1nnnc1NCc1ccccc1Cl | 6.3% | – | 29.1 µM [rising, single point] |

| Compound | cell number change | AC50 [1] | AC50 [2] |
| --- | --- | --- | --- |
| COc1ccccc1NC(=O)CNC(=O)Cn1cnc2sc(C)c(C)c2c1=O | 2.85% | – | 23.1 µM [rising, partial curve, poor fit] |
| Cc1c(C(=O)Cc2ccccc2)n(C)c2ccccc12 | 56.7% | 18.4 µM [rising, single point] | – |
| O=C(c1cnn2c(C(F)(F)F)cc(-c3ccc4c(c3)OCO4)nc12)N1CCCCC1 | 1.02% | – | – |
| COc1ccc(S(=O)(=O)N2CCOCC2)cc1Br | 11.1% | – | – |
| NS(=O)(=O)c1cc(C(=O)NC2CCSc3ccccc32)ccc1Cl (stereo unspecified) | 12.9% | – | 0.00517 µM [falling, full curve, poor fit] |
| NNC(=O)COc1ccc(C2SCCS2)cc1 | -31.8% | 32.6 µM [falling, single point] | – |
| COc1ccc(NC(=O)CSc2nnc3n2CCCCC3)cc1S(=O)(=O)N1CCOCC1 | -33.9% | 0.206 µM [falling, full curve] | 0.00461 µM [falling, full curve, poor fit] |
| CN(C)/C=N/NC(=O)C1Cc2c(ccc3ccccc23)O1 (stereo unspecified) | 19.8% | – | 11.6 µM [rising, partial curve] |
| CN(C(=O)c1ccccc1)C1(C)CCS(=O)(=O)C1 (stereo unspecified) | -53.6% | 9.2 µM [falling, partial curve] | 5.8 µM [falling, full curve] |
| COc1ccc2sc(-c3ccc(N(C)C)cc3)c(-c3cnc(OC)nc3)c2c1 | -7.31% | – | 16.4 µM [rising, single point] |
| Cn1c(O)c(N=Nc2ccccc2)c2ccccc21 | 0.556% | – | 0.00411 µM [rising, full curve, poor fit] |
| CC(C)CN(C(=O)CN1CCCCCC1)c1c(N)n(CC(C)C)c(=O)[nH]c1=O | -26.8% | – | 0.82 µM [falling, partial curve, poor fit] |
| Cc1c(C(=O)O)nnn1-c1nonc1N | 9.85% | – | – |
| O=C(OCC#CCSc1nnc(-c2cccc3ccccc23)o1)c1cccs1 | -0.83% | – | 0.164 µM [rising, full curve, poor fit] |
| Cc1cccc(C)c1NC(=O)COc1ccc2c(C)c(Cc3ccccc3)c(=O)oc2c1C | -24.2% | – | 29.1 µM [falling, single point] |
| COc1ccc(NC(=O)COc2ccc3c(c2)OCO3)cc1 | -26.3% | – | – |
| O=C(O)c1nn(-c2ccccc2-c2n[nH]c(=O)[nH]c2=O)c(=O)[nH]c1=O | 3.3% | – | 6.51 µM [falling, single point] |
| CC1(C)CC(C(CC(=O)N2CCCC2)Cc2ccccc2)CCO1 (stereo unspecified) | 6.4% | – | 29.1 µM [rising, single point] |
| CCCc1nn(C)c(C(=O)Nc2cccc(C)c2)c1Cl | -24.8% | – | 0.651 µM [rising, full curve, poor fit] |

Individual results from the list.
Under AC50 [2], `Cc1cccc(C)c1NC(=O)COc1ccc2c(C)c(Cc3ccccc3)c(=O)oc2c1C` has the entry 29.1 µM [falling, single point]
Under AC50 [2], `O=C(O)c1nn(-c2ccccc2-c2n[nH]c(=O)[nH]c2=O)c(=O)[nH]c1=O` has the entry 6.51 µM [falling, single point]
Under AC50 [2], `CC(C)CN(C(=O)CN1CCCCCC1)c1c(N)n(CC(C)C)c(=O)[nH]c1=O` has the entry 0.82 µM [falling, partial curve, poor fit]
